We go through 4 molecules from publication PMC9788671.

Sequences of proteins named here, by UniProt entry; tags and fusion partners are left off.
UniProt Q9NZV8: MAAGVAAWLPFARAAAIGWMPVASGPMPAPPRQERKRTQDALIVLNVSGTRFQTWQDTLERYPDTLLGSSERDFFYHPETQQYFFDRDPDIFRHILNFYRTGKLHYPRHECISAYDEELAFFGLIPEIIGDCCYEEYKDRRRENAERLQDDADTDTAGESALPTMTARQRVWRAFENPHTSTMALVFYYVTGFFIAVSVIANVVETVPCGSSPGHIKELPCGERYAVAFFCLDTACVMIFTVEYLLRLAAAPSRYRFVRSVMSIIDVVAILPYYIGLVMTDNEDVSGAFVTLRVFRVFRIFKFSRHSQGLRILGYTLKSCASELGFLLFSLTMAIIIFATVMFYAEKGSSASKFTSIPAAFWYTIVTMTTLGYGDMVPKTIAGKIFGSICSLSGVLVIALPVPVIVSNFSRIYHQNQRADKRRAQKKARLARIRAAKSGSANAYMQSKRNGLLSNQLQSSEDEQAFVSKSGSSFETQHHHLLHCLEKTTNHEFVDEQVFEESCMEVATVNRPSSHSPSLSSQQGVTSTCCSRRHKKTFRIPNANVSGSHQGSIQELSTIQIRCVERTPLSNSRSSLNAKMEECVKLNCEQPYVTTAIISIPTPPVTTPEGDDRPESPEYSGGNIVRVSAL

The target of experiment [1] is TAP-Kv4.2 (human) (UniProt Q9NZV8). The experiment in a line: affinity purification with mass spectrometry; TAP-Kv4.2 expressed by lentivirus in rat hippocampal neurons, harvested at DIV14; strong lysis buffer (1% Triton X-100, 0.5% deoxycholate in PBS, pH 7.4); streptavidin resin, then calmodulin resin; gel cut into high and low molecular weight fragments; no MS of the control sample.

Experiment [2] has the same target. The experiment is described as follows: affinity purification with mass spectrometry; TAP-Kv4.2 expressed by lentivirus in rat hippocampal neurons, harvested at DIV14; weak lysis buffer of the kit (0.1% NP-40); streptavidin resin, then calmodulin resin; gel cut into high and low molecular weight fragments; no MS of the control sample.

Results are given in words; binding and its absence hold for the method and conditions named. In cells and extracts the contact can be indirect. These calls come from enrichment with a bait or labelling near it, and not all partners need be listed.

B1: Ylpm1 (protein, UniProt P0CB49 1-1376)
chain: MYPNWGRYGGSSHYPPPPVPPPPPPVALPEASPGPGYSSSTAPAAPSSSGFMSFREQHLAQLQQLQQMHQKQMQCVLQPHHLPPPPLPPPPVMPGGGYGDWQPPPPPMPPPPGPALSYQKQQQYKHQMIHHQRDGPPGLVPMELESPPESPPVPPGSYMPPSQSYMPPPQPPPSYYPPSSAQPYLPPAQPSPSKPQLPPPPPSIPSGNKTTIQQEPLETGAKNKNAEQKQAAPEPDPSTMTPQEQQQYWYRQHLLSLQQRTKVHLPGHKKGLVTAKDVPEPIKEEAPVPATSQIAEPLAAEEPPLPPPNEEMPPPLPPEEPQNNSSEMSEDPEEDARLKQLQAAAAHWQQHQQHRVGFQYQGIMQRHTQLQQILQQYQQVIQHSPHIQTMSLDVQLRHYEMQQQQFQRLYQEWEREFQLWEEQLHSYPHKDQLEEYEKQWKSWQGHMRATQTYLQEKVTSFQAVKNQYMGNMAMPPPFVPYSQMPPPLPTMPPPVLPPSLPPPVMPPALPSTIPPPGMPPPVMPPSLPTSVPPPGMPPSLSSAVLPPPSLSSAGPPPVLPPPSLSGAPPVLPLPPLSSATPPPGIPPPGVPQGMPPQLTAPVPPASSSQNSQVPEKPRQALLPTPVSFGSTPPSPYHPPPQSEQGNSKPLNKVFSSEQGLGESSSALSQSVIAAKDTPVKSGGLLADPPKGSFLEGPRGPREQKEQLQKLKDFGSEPQTADHLPPPDSRLQNTSRPGMYPPPGSYRPPPPMGKPPGSIVRPSAPPARSCVPMTRPPVPIPPPPPPPPPPPPPPPVIKPKTSSVKQERWDEDSFFGLWDTNDDQGLNSEFKRDTAAIPSAPVLPPPPVHPSIPPPGPMPMGMPPMSKPPPVQHTVDYGHGRDMPTNKVEQIPYGERITLRPDPLPERSAFDADHAGQRDRYDRDRDREPYFDRQSNMTDHRDFKRDRETHRDRDRVLDYERDRFDRERRPRDDRNQSYRDKKDHSSSRRGGFDRPSYDRKSDRPPYEGPPMFGGERRTYPEERMPLPAPSLGHQPPPVPRVEKKPESKNVDDILKPPGRESRPERIVVIMRGLPGSGKTHVAKLIRDKEVEFGGPAPRVLSLDDYFIAEVEKEEKDPDSGKKVKKKVMEYEYEADMEETYRTSMFKTFKKTLDDGFFPFIILDAINDRVRHFDQFWSAAKTKGFEVYLAEMSADNQTCGKRNIHGRKLKEINKMAEHWEAAPRHMMRLDIRSLLQDAAIEEVEMEDFDANIEDQKEEKKDAEEEESELGYIPKSKWEMDTSEAKLDKLDGLRTGTKRKRDWEAIASRMEDYLQLPDDYETRASEPGKKRVRWADLEEKKDADRKRAIGFVVGQTDWEKITDESGHLAERALNRTKYI
Regarding B1, the binding result in the experiment with TAP-Kv4.2 (human) [1] is listed as “binds”.

B2: Rpn1 (protein, UniProt P07153 23-605)
chain: SSEAPPLVNEDVKRTVDLSSHLAKVTAEVVLAHPGGGSTARASSFVLALEPELESRLAHLGVQVKGEDEEDNNLEVRETKMKGKSGRFFTVKLPVALDPGSKISIVVETVYTHVLHPYPTQITQSEKQFVVFEGNHYFYSPYPTKTQTMRVRLASRNVESHTKLGNPSRSEDILDYGPFKDIPAYSQDTFKVHYENNSPFLTITSMTRVIEVSHWGNIAVEENVDLKHTGAVLKGPFSRYDYQRQPDSGISSIRSFKTILPAAAQDVYYRDEIGNVSTSHLLILDDSVEMEIRPRFGLFGGWKTHYIVGYNLPSYEYLYNLGDQYALKMRFVDHVFDEQVIDSLTVKIILPEGAKNIQVDSPYDISRAPDELHYTYLDTFGRPVIVAYKKNLVEQHIQDIVVHYTFNKVLMLQEPLLVVAAFYILFFTVIIYVRLDFSITKDPAAEARMKVACITEQVLTLVNKRLGLYRHFDETVNRYKQSRDISTLNSGKKSLETEHKAVTSEIAVLQSRLKTEGSDLCDRVSEMQKLDAQVKELVLKSAVEAERLVAGKLKKDTYIENEKLSSGKRQELVTKIDHILDAL
For B2, in the experiment with TAP-Kv4.2 (human) [2], the binding result is listed as “binds”.

B3: Atad3 (protein, UniProt Q3KRE0 1-591)
chain: MSWLFGIKGPKGEGTGPPLPLPPAQPGAESGGDRGAGDRPSPKDKWSNFDPTGLERAAKAARELEHSRHAKEALNLAQMQEQTLQLEQQSKLKEYEAAVEQLKSEQIRVQAEERRKTLNEETRQHQARAQYQDKLARQRYEDQLKQQQLLNEENLRKQEESVQKQEAIRRATVEREMELRHKNEMLRVEAEARARAKADRENADIIREQIRLKAAEHRQTILESIRTAGTLFGEGFRAFVTDWDKVTATVAGLTLLAVGVYSAKNATSVAGRYIEARLGKPSLVRETSRISVLEALRHPIQVSRRLVSRPQDALEGVILSPSLEARVRDIAIATRNTKKNKSLYRNVLMYGPPGTGKTLFAKKLALHSGMDYAIMTGGDVAPMGREGVTAMHKVFDWASTSRRGLLLFVDEADAFLRKRATEKISEDLRATLNAFLHRTGQHSNKFMLVLASNQPEQFDWAINDRIDEMVCFALPQREERERLVRMYFDKYVLKPATEGKQRLKVAQFDYGKKCSEVAQLTAGMSGREIAQLAVAWQAMAYSSEDGVLTEAMMDARVQDAVQQHQQKMQWLKVERPDSEASKPPHPSLLSC
B3: the binding entry in the experiment with TAP-Kv4.2 (human) [2] is given as “binds”.

B4: Ddx1 (protein, UniProt Q641Y8 1-740)
chain: MAAFSEMGVMPEIAQAVEEMDWLLPTDIQAESIPLILGGGDVLMAAETGSGKTGAFSIPVIQIVYETLKDQQEGKKGKATIKTGASVLNKWQMNPYDRGSAFAIGSDGLCCQSREVKEWHGCRATRGLLRGKHYYEVSCHDQGLCRVGWSTMQASLDLGTDKFGFGFGGTGKKSHNKQFDNYGEEFTMHDTIGCYLDIDKGHVKFSKNGKDLGLAFEIPAHIKNQALFPACVLKNAELKFNFGEEEFKFPPKDGFVALSKAPDSYVVKSQHTGNAQVSQTKFLPNAPKALIVEPSRELAEQTLNNVKQFKKYIDNPKLRELLIIGGVAARDQLSVLDNGVDIVVGTPGRLDDLVSTGKLNLSQVRFLVLDEADGLLSQGYSDFINRMHNQIPQITSDGKRLQVIVCSATLHSFDVKKLSEKIMHFPTWVDLKGEDSVPDTVHHVVVPVNPKTDRLWERLGKNHIRTDDVHAKDNTRPGANSPEMWSEAIKILKGEYAVRAIKEHKMDQAIIFCRTKIDCDNLEQYFMQQGGGPDKKGHQFSCVCLHGDRKPHERKQNLERFKKGDVRFLICTDVAARGIDIHGVPYVINVTLPDEKQNYVHRIGRVGRAERMGLAISLVATEKEKVWYHVCSNRGKGCYNTRLKEDGGCTIWYNEMQLLSEIEEHLNCTISQVEPDIKVPVDEFDGKVTYGQKRAAGGGNYKGHVDILAPTVQELAALEKEAQTSFLHLGYLPNQLFRTF
Regarding B4, in the experiment with TAP-Kv4.2 (human) [2], the binding result is given as “binds”.
